Laboratory results as given in PMC5996148.
The list shows a part of the results.

What was measured:
Experiment in all cases: protein microarray (ProtoArray v5.0), streptavidin-Alexa Fluor 647
Conditions in all cases: 3'-biotin; 20 mM Tris (pH 7.5), 5 mM MgCl2, 100 mM KCl, 0.1% Tween-20, A/T-rich and random oligonucleotide blockers; temperature not stated; high values mean tight binding
[1] = test system: LOC153684 protein (human)
LOC170425 (human) = test system: LOC170425 (human)
LOC201725 (human) = test system: LOC201725 (human)
LOC202459 (human) = test system: LOC202459 (human)
LOC284134 (human) = test system: LOC284134 (human)
LOC285141 (human) = test system: LOC285141 (human)
LOC286208 (human) = test system: LOC286208 (human)
LOC388589 (human) = test system: LOC388589 (human)
LOC400600 (human) = test system: LOC400600 (human)
LOC401169 (human) = test system: LOC401169 (human)

Sequence: GGGGACAGGGGTATGGGGAGGGG [G4-3 biotinylated (CtG)]
- binding signal [1]: 4.46 z-score
- binding signal (LOC170425 (human)): -0.316 z-score
- binding signal (LOC201725 (human)): -0.327 z-score
- binding signal (LOC202459 (human)): -0.314 z-score
- binding signal (LOC284134 (human)): -0.31 z-score
- binding signal (LOC285141 (human)): -0.318 z-score
- binding signal (LOC286208 (human)): -0.317 z-score
- binding signal (LOC388589 (human)): -0.311 z-score
- binding signal (LOC400600 (human)): -0.325 z-score
- binding signal (LOC401169 (human)): -0.303 z-score
